Data from patent publication US20240228658A1.
No constants are given. Whether binding was seen depends on the method and setting. Some entries that bind do so weakly or less than the wild type.

Amino acid sequences for entries named in this document (tags omitted). Residues count along the entry.
UniProt Q4R8Y9, residues 35-420: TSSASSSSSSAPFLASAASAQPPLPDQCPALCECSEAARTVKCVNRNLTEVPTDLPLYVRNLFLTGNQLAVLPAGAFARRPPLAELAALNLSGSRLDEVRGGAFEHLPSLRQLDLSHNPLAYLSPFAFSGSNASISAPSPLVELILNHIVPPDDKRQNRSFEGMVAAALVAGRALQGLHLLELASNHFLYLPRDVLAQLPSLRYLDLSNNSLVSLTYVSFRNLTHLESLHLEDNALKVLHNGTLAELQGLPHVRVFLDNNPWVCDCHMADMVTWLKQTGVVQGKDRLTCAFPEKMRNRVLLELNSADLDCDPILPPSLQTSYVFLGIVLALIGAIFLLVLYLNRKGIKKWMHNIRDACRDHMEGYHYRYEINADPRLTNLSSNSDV

Experiments:
[1] = target: T1, human 5T4 on cells (human) (UniProt Q13641); experiment: FACS, MCF-7 cells
T1 sequence (looked up): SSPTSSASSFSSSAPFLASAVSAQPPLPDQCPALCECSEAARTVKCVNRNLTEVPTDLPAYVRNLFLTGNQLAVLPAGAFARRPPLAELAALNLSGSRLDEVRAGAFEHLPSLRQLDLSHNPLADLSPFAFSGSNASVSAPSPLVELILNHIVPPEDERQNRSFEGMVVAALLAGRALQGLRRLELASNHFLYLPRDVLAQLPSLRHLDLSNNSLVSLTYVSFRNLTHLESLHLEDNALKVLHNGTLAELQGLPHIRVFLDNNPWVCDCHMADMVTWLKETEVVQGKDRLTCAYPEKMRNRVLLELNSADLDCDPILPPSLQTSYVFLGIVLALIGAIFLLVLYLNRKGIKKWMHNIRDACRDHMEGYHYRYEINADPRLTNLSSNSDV

[2] = target: T1, human 5T4 on cells (human); experiment: FACS, CHO cells over expressing human 5T4
[3] = target: cyno 5T4 on CHO cells (cyno) (UniProt Q4R8Y9); experiment: FACS, CHO cells over expressing cyno 5T4
[4] = target: recombinant human 5T4 ECD protein fused to human Fc (human) (UniProt Q13641); experiment: ELISA, coated 5T4 antigen

Measured: binding

B1: mAb003 (antibody, V domains shown)
VH: QVQLQQSGAELMKPGASVKLSCKATGYTFTGYWIEWVKQRPGHGLEWIGEILPGRDSTNSNEKFKGKATFTADTSSNTVYMQLSSLTTEDSAIFYCARGYRDFDYWGQGTTLTVSS
VL: DIVMTQSQKFMSTTVGDRVSIICKASQNVGTAVAWYQQKPGQSPKVLIYSASNRYTGVPDRFTGSGSGTDFTLTISNMQSEDLADYFCQQYSSYPRTFGGGTKLEIK
binds: [1] | [2] | [3]

B2: mAb005 (antibody, V domains shown)
VH: EVQLVESGGGLVQPKGSLQLSCAASGFTFNTYAMHWVRQAPGKGLEWVARIRSKSSNYATYYADSVKDRFTISRDDSQSMLYLQMNNLKTEDTAMYYCVRDGDYYYGSRPSYWYFDVWGTGTTVTVSS
VL: DILLTQSPAILSVSPGERVSFSCRASQSIGTNIHWYQQRTNGSPRLLIKYASESISGIPSRFSGSGSGTDFTLSINNVESEDIADYYCQQTNTWPLTFGAGTKLDLK
binds: all assays above
